Source: patent CN116355099A
These are yes or no findings as the source states them, for the method shown. Some results given as binding are weak or reduced against the parent protein; the word gives no strength.

The chains behind the UniProt entries cited, without tags or fusion partners.
UniProt Q9NZQ7: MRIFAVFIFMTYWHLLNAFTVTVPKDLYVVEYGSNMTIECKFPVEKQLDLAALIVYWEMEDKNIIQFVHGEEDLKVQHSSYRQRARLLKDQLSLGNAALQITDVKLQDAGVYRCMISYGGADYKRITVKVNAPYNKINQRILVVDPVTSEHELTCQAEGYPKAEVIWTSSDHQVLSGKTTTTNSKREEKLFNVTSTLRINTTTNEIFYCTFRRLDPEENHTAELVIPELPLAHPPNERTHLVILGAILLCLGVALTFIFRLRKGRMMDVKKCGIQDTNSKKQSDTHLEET

Biological target: PD-L1-mFc (UniProt Q9NZQ7)
Assay: competition ELISA: PD-1-hFc coated, PD-L1-mFc 1 ug/ml in solution, blocking of PD-L1 binding to PD-1

B1: 抗PD-L1人源化纳米抗体hzF2 (VHH, not shown: a dimerising Fc or GST)
VHH: EVQLVESGGGLVQPGGSLRLSCAASRDSDEGASCMGWFRQAPGKEREGVAIIFNAGERTDYGDSVKGRFTISRDNAKNTLYLQMNSLRAEDTAVYYCATVWCGSWVARSWGQGTLVTVSS
How did the binding turn out when B1 was run?
The binding was “binds”.
